Targets (5′ to 3′):
T1: TPP riboswitch RNA three-way junction, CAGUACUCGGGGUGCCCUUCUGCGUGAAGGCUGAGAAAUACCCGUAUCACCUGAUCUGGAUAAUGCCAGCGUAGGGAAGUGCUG. About 24,000 compounds screened, about 160 hits.
T2: SAM-II riboswitch RNA pseudoknot, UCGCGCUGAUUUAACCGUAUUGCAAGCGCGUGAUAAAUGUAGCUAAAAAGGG. About 21,000 compounds screened, about 200 hits.
T3: PreQ1 riboswitch RNA pseudoknot, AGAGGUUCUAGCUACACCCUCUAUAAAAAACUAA. From B. subtilis. About 24,000 compounds screened, about 170 hits.

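Compounds were printed on reactive glass slides in duplicate spots, a dye-labelled oligonucleotide was laid over them, and the fluorescence left after washing was read. For the PreQ1, TPP and SAM-II riboswitches the laboratory earlier reported (doi:10.1038/s41467-019-09493-3) 1 µM RNA, 2 h, and a rule that included a mean Z-score above 3 (spot signal-to-noise against the whole library), a score well above that on a control array, and duplicate spots agreeing (coefficient of variation under 100). The data file gives only the calls; its cut-offs may differ, and compounds hitting several targets are kept. These are primary screening calls, not affinities; a compound without a hit may have attached poorly or may still bind in solution.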 Key: active = hit, inactive = tested without a hit. Compounds were drawn at random from those tested, without regard to their results. A target missing from an entry has no call listed here.

With Nc1c(C(=O)Nc2cc(Cl)ccc2Cl)sc2ncccc12 the screen gave T1: inactive; T2: inactive; T3: inactive. For Cc1ccc(-c2nc3cnccn3c2Nc2ccc(C(N)=O)cc2)cc1 the calls were T1: inactive; T3: inactive. CSc1cccc(NC(=O)Nc2nc3c(C)cccc3s2)c1 was scored T1: inactive; T2: inactive; T3: inactive. Calls for COc1cc(Nc2ncc3c(n2)-c2ccc(Cl)cc2C(c2c(F)cccc2OC)=NC3)ccc1C(=O)O are T1: inactive; T2: inactive; T3: inactive. For CS(=O)(=O)c1ccc(C2=C(c3ccccc3)C(=O)OC2)cc1 the calls were T1: inactive; T2: inactive; T3: inactive. CN(C)c1ccc2nc3ccc(=[N+](C)C)cc-3sc2c1 was scored T1: inactive; T2: inactive; T3: inactive.

With Nc1ccc2nc(SCC(=O)Nc3ccccc3F)sc2c1 the screen gave T1: inactive; T2: inactive; T3: inactive. Calls for Cc1cc(C)c2oc(=O)cc(CN(C)CCC(O)c3ccccc3)c2c1 (configuration not stated) are T1: inactive; T2: inactive; T3: inactive. For CC1CCCCN1C1CN(c2ncnc3c2CCNCC3)C1 (configuration not stated) the calls were T1: inactive; T2: inactive; T3: inactive. For CC(C)CN1CC(=O)C(c2nc3ccccc3s2)=C1N the calls were T1: inactive; T3: inactive. For COc1cccc(NC(=S)Nc2ccc(O)cc2)c1 the calls were T1: inactive; T2: inactive; T3: inactive. For CCOc1ccc2sc(NS(=O)(=O)c3ccc(N)cc3)nc2c1 the calls were T1: inactive; T2: inactive; T3: inactive.

N#C/C(=C\c1ccc(C#N)cc1)C(=O)c1ccccc1 was scored T1: inactive; T2: inactive; T3: inactive. With C=CCOc1ccc(C2C(C#N)=C(N)Oc3c2c(=O)n(C)c2ccccc32)cc1 (configuration not stated) the screen gave T1: inactive; T2: inactive; T3: inactive. Cc1ccc(/N=N/c2c(N)nn(-c3ccccc3)c2N)cc1 was scored T1: inactive; T2: inactive; T3: inactive. With CCN(C(=O)Nc1cc(C)c(F)cc1Cl)[C@H]1COC[C@@H]1O the screen gave T1: inactive; T2: inactive; T3: inactive. With COc1ccc(C2C(C#N)=C(N)Oc3ccc4ccccc4c32)cc1 (configuration not stated) the screen gave T1: inactive; T2: inactive; T3: inactive. For CCOC(=O)C1=C(C)OC(N)=C(C(=O)OCc2ccccc2)C12C(=O)Nc1ccccc12 (configuration not stated) the calls were T1: inactive; T2: inactive; T3: inactive.

With Cn1c(=O)c2c(nc(CN3CCc4ccccc4C3)n2CCCO)n(C)c1=O the screen gave T1: inactive; T2: inactive; T3: inactive. CCSc1nnc(-c2cc(Br)ccc2N)c(O)n1 was scored T1: inactive; T2: inactive; T3: inactive. Calls for Cn1c(=O)cc2c3c(c(Nc4cccc(Cl)c4)ccc31)C(=O)c1ccccc1-2 are T1: inactive; T2: inactive; T3: inactive. With Nc1nn2c(-c3cccc(Cl)c3)nnc2s1 the screen gave T1: inactive; T2: inactive; T3: active. Calls for OCC(O)C1OCOC(C(O)CO)C1O (configuration not stated) are T1: inactive; T2: inactive; T3: inactive.

Source: the ROBIN nucleic acid binder screens (doi:10.1002/anie.202211358).